Values from PubChem BioAssay AID686938 (Drosophila RNAi Screening Center, 2013).
In all, the deposit lists about 23,000 reagents; below is a random part of those that have a named target and a result. Of all reagents, 75 (0.33%) were called active. 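Raw plate signals without normalisation; calls rest on plate z-scores that were not deposited; ratio present for only 364 wells.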 A plus sign joins genes that one reagent is predicted to hit. No sequences are given here. Not given: the dose of the treatment.

Purpose: 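Knock-downs reducing store-operated calcium influx in Drosophila cells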 (primary screen)
Cell system: Drosophila S2R+ cells
Reagents: long dsRNA against Drosophila genes, about 0.25 µg dsRNA per well, roughly 10,000 cells
Duration: 5 days of knock-down before the calcium assay
Conditions: thapsigargin (SERCA pump blocker) to empty calcium stores; entry signal taken 4 min after adding it
Detection: 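Duplicate raw fluo-4 intensities per well from a plate reader, at rest and four minutes after thapsigargin emptied calcium stores; entry-to-rest ratio filled for only some wells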
Reading the numbers: calcium entry signal: higher = stronger calcium signal after store depletion; resting calcium signal: higher = higher resting calcium signal
Active means: 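Called when the plate z-score of the entry-to-rest ratio, mean of duplicates, falls below −3; wells with low overall dye signal (Fmax z below −2) or more than five off-targets excluded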
Meaning of the calls: active = strongly reduced calcium entry; inactive = no strong reduction

gene | DRSC id | calcium entry signal, replicate 1 (fluorescence units) | calcium entry signal, replicate 2 (fluorescence units) | resting calcium signal, replicate 1 (fluorescence units) | resting calcium signal, replicate 2 (fluorescence units) | outcome
bs | DRSC04676 | 2.77e7 | 4.61e7 | 1.74e7 | 2.30e7 | inactive
bs | DRSC23068 | 5.14e7 | 2.77e7 | 2.68e7 | 1.23e7 | inactive
Nlg4 | DRSC15108 | 4.50e7 | 4.06e7 | 4.94e7 | 1.75e7 | inactive
Nlg4 | DRSC15109 | 3.53e7 | 3.67e7 | 1.96e7 | 1.59e7 | inactive
Nlg4 | DRSC15700 | 4.12e7 | 3.65e7 | 5.64e7 | 1.69e7 | inactive
Nlg4 | DRSC15701 | 3.28e7 | 3.12e7 | 3.34e7 | 1.62e7 | inactive
Nlg4 | DRSC22243 | 2.98e7 | 3.94e7 | 1.55e7 | 2.17e7 | inactive
Gnpnat | DRSC15405 | 4.19e7 | 4.94e7 | 1.82e7 | 2.15e7 | inactive
Rexo5 | DRSC10981 | 2.46e7 | 2.92e7 | 1.28e7 | 1.61e7 | inactive
CG6610 | DRSC10674 | 2.28e7 | 4.17e7 | 1.11e7 | 1.69e7 | inactive
Rheb | DRSC12148 | 3.32e7 | 3.01e7 | 1.96e7 | 1.79e7 | inactive
CG4789 | DRSC19918 | 3.27e7 | 2.88e7 | 1.78e7 | 1.45e7 | inactive
CG12609 | DRSC19473 | 1.48e7 | 3.87e7 | 9.07e6 | 1.62e7 | inactive
Obp99d | DRSC15046 | 4.10e7 | 5.11e7 | 2.08e7 | 2.17e7 | inactive
CG7747 | DRSC07038 | 3.76e7 | 3.49e7 | 1.70e7 | 1.68e7 | inactive
grau | DRSC04691 | 4.55e7 | 5.72e7 | 2.01e7 | 2.10e7 | inactive
nord | DRSC04210 | 3.49e7 | 4.06e7 | 1.83e7 | 1.83e7 | inactive
nord | DRSC04361 | 3.73e7 | 4.19e7 | 1.94e7 | 2.08e7 | inactive
Gbp1 | DRSC06592 | 4.39e7 | 4.21e7 | 1.87e7 | 1.86e7 | inactive
zpg | DRSC09702 | 2.90e7 | 4.96e7 | 1.37e7 | 2.25e7 | inactive
CG17996 + Tsen2 | DRSC02650 | 4.11e7 | 2.55e7 | 1.82e7 | 1.12e7 | inactive
p38a | DRSC16743 | 4.63e7 | 5.68e7 | 2.45e7 | 2.54e7 | inactive
CG13126 | DRSC02222 | 3.69e7 | 4.70e7 | 1.67e7 | 1.88e7 | inactive
CG7744 | DRSC07036 | 3.05e7 | 2.39e7 | 1.46e7 | 1.34e7 | inactive
CG11247 | DRSC11643 | 3.09e7 | 5.58e7 | 1.46e7 | 2.63e7 | inactive
CG11247 | DRSC21901 | 2.85e7 | 4.41e7 | 1.44e7 | 2.14e7 | inactive
CG13028 | DRSC09908 | 3.88e7 | 6.52e7 | 1.90e7 | 2.35e7 | inactive
CG5958 | DRSC02915 | 3.97e7 | 4.12e7 | 1.88e7 | 1.97e7 | inactive
Sec63 | DRSC11002 | 2.59e7 | 4.24e7 | 1.25e7 | 1.93e7 | inactive
DIP-kappa | DRSC01336 | 3.94e7 | 4.01e7 | 2.01e7 | 1.89e7 | inactive
DIP-kappa | DRSC01337 | 4.02e7 | 4.33e7 | 1.85e7 | 1.88e7 | inactive
lectin-46Ca | DRSC06612 | 3.13e7 | 4.86e7 | 1.31e7 | 2.32e7 | inactive
P5CDh1 | DRSC11801 | 2.82e7 | 3.42e7 | 1.21e7 | 2.23e7 | inactive
CG33060 | DRSC09939 | 4.91e7 | 6.72e7 | 2.19e7 | 3.02e7 | inactive
tyf | DRSC18382 | 3.47e7 | 4.91e7 | 1.79e7 | 2.28e7 | inactive
CG7518 | DRSC16253 | 3.59e7 | 5.46e7 | 1.62e7 | 2.33e7 | inactive
CG17097 | DRSC02569 | 3.04e7 | 4.45e7 | 1.69e7 | 2.04e7 | inactive
Dlc90F | DRSC16649 | 5.56e7 | 4.50e7 | 2.55e7 | 1.82e7 | inactive
CG7091 | DRSC12944 | 2.69e7 | 3.52e7 | 1.23e7 | 1.55e7 | inactive
CG7091 | DRSC16197 | 2.01e7 | 3.30e7 | 9.95e6 | 5.39e7 | inactive
CG31626 + CG8677 | DRSC21844 | 2.11e7 | 4.47e7 | 1.02e7 | 2.08e7 | inactive
CG14259 | DRSC14754 | 3.59e7 | 4.78e7 | 1.88e7 | 2.13e7 | inactive
CG9864 | DRSC07346 | 5.65e7 | 5.96e7 | 2.54e7 | 2.94e7 | inactive
Inos | DRSC07655 | 3.49e7 | 4.39e7 | 1.65e7 | 1.93e7 | inactive
CG16710 | DRSC15136 | 3.50e7 | 1.19e7 | 1.60e7 | 6.39e6 | inactive
Dus4 | DRSC02066 | 4.46e7 | – | 2.29e7 | – | inactive
CG10474 | DRSC05993 | 4.22e7 | 4.74e7 | 1.87e7 | 2.18e7 | inactive
CG7582 | DRSC16261 | 3.28e7 | 3.95e7 | 1.61e7 | 1.69e7 | inactive
Art2 | DRSC00627 | 2.36e7 | 2.22e7 | 1.20e7 | 1.05e7 | inactive
fidipidine | DRSC07618 | 4.45e7 | 3.93e7 | 1.93e7 | 1.97e7 | inactive
senju | DRSC02366 | 3.63e7 | 3.98e7 | 1.79e7 | 1.87e7 | inactive
Syb | DRSC07559 | 3.86e7 | 3.82e7 | 1.99e7 | 2.13e7 | inactive
CG4198 | DRSC18354 | 2.10e7 | 2.94e7 | 1.21e7 | 1.44e7 | inactive
CG34175 | DRSC00424 | 2.85e7 | 2.80e7 | 1.38e7 | 1.28e7 | inactive
row | DRSC07076 | 2.13e7 | 2.23e7 | 1.05e7 | 1.13e7 | inactive
row | DRSC07077 | 3.20e7 | 3.01e7 | 1.70e7 | 1.54e7 | inactive
Usp2 | DRSC20590 | 3.35e7 | 3.66e7 | 1.60e7 | 1.63e7 | inactive
Usp2 | DRSC20632 | 3.57e7 | 4.09e7 | 1.76e7 | 1.87e7 | inactive
Usp2 | DRSC20633 | 5.30e7 | 4.81e7 | 2.48e7 | 2.18e7 | inactive

9 entries from above, reduced to “resting calcium signal, replicate 2 (fluorescence units)”.
CG11247 [DRSC11643]: 2.63e7
CG11247 [DRSC21901]: 2.14e7
CG13028 [DRSC09908]: 2.35e7
CG5958 [DRSC02915]: 1.97e7
Sec63 [DRSC11002]: 1.93e7
DIP-kappa [DRSC01336]: 1.89e7
DIP-kappa [DRSC01337]: 1.88e7
lectin-46Ca [DRSC06612]: 2.32e7
P5CDh1 [DRSC11801]: 2.23e7
